{"source": "patent US20240309014A1", "about": "“MACROCYCLIC COMPOUNDS AND USES THEREOF” (President and Fellows of Harvard College, priority 2017, published 2024)", "origin": "cited, not measured here", "conditions": "cited from earlier work", "note": "At least one structure is not confirmed: it was looked up by name or label, or the drawing left a doubt.", "data": [{"compound": "C=C1C[C@@H]2CC[C@@]34C[C@@]5(O)O[C@H]6[C@@H](O3)[C@H]3O[C@H](CC[C@@H]3O[C@H]6[C@H]5O4)CC(=O)O[C@@H]3[C@@H](C)[C@@H]4O[C@@H]5C[C@]6(C[C@@H]7O[C@]8(C[C@H](C)[C@@H]9O[C@H]([C@@H](O)C[C@@H](O)CO)C[C@@H]9O8)C[C@H](C)[C@@H]7O6)O[C@@H]5C[C@@H]4O[C@H]3C[C@H]3O[C@@H](CC[C@@H]1O2)C[C@@H](C)C3=C", "note": "[Halichondrin C]", "values": [{"measurement": "activity in in vivo models", "result": "active in various in vivo models"}]}]}
